Assay results as given in the supplement of paper PMC10849652.
This is one part of the list.

Protein sequences, listed by entry. Tags and fused reporters are not part of them. Lines headed by an entry give the natural chain unless they say otherwise; changes in a name come on top.
UniProt Q96EN9: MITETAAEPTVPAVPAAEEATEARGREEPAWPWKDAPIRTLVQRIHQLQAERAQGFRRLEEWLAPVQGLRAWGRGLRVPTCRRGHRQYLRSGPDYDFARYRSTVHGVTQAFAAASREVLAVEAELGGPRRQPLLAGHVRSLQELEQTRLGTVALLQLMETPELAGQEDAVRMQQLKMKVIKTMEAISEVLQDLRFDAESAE
UniProt Q02161: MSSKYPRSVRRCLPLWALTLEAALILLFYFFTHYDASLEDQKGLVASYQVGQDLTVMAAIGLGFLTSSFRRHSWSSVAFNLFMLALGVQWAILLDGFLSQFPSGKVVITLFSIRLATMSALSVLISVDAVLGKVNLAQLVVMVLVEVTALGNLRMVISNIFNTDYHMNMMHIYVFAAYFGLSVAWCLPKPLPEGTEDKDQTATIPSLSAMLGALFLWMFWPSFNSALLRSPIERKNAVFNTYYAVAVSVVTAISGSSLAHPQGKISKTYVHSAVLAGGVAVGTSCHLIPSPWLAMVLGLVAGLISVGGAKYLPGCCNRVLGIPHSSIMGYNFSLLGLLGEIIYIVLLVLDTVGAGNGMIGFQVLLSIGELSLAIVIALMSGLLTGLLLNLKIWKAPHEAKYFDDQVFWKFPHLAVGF
UniProt Q6PCD5: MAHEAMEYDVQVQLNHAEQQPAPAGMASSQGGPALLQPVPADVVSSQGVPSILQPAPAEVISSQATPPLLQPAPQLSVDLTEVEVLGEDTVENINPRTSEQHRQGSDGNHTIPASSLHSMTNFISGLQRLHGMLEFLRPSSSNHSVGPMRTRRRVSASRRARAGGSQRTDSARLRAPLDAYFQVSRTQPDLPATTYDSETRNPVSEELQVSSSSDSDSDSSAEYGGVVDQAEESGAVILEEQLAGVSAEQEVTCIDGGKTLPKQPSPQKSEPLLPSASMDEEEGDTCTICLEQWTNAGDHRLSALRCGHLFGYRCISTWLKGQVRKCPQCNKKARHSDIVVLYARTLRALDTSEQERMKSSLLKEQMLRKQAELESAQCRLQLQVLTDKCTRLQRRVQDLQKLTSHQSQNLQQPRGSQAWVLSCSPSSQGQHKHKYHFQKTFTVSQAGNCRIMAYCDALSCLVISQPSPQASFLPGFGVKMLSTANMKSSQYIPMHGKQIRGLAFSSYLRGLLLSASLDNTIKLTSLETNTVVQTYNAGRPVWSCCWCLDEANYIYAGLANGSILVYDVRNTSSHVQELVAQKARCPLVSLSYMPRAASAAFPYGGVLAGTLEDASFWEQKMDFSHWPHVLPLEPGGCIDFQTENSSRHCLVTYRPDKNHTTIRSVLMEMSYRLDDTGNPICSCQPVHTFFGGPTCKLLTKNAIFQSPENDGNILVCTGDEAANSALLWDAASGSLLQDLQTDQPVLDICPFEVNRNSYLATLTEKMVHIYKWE
UniProt A6NEQ0: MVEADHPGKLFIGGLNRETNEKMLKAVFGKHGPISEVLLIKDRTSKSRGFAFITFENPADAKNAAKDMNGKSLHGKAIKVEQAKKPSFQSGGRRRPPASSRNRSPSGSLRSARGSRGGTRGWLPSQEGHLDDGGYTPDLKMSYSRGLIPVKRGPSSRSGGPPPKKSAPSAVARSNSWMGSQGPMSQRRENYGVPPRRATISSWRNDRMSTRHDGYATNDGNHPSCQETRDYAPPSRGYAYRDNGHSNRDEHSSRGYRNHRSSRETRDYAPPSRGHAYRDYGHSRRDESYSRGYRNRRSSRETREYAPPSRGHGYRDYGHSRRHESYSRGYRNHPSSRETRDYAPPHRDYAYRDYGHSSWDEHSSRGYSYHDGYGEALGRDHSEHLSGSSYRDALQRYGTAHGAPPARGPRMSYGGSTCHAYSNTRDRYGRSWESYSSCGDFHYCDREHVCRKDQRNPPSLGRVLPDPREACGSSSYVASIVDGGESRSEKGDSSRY
UniProt Q06587: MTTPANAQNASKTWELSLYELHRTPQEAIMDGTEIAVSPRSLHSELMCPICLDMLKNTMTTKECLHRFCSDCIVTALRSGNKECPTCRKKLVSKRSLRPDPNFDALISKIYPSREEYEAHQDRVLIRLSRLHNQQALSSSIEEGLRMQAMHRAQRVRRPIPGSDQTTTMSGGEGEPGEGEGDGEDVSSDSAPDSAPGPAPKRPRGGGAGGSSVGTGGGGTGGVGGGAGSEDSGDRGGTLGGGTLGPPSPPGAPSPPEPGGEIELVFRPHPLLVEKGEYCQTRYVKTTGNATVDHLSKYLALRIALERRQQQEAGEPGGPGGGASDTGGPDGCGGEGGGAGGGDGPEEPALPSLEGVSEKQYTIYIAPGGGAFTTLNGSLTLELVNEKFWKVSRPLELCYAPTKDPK
UniProt Q5RL73: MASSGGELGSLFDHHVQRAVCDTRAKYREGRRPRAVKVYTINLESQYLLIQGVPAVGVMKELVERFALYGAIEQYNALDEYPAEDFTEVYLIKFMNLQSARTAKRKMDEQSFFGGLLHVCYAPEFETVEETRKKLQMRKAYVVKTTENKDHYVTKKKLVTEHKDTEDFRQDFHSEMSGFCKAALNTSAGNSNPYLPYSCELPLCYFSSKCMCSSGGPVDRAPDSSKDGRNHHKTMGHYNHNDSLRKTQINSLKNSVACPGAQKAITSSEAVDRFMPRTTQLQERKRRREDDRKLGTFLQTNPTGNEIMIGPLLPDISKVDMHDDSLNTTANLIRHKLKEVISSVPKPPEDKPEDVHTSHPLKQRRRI
UniProt Q8NCN4: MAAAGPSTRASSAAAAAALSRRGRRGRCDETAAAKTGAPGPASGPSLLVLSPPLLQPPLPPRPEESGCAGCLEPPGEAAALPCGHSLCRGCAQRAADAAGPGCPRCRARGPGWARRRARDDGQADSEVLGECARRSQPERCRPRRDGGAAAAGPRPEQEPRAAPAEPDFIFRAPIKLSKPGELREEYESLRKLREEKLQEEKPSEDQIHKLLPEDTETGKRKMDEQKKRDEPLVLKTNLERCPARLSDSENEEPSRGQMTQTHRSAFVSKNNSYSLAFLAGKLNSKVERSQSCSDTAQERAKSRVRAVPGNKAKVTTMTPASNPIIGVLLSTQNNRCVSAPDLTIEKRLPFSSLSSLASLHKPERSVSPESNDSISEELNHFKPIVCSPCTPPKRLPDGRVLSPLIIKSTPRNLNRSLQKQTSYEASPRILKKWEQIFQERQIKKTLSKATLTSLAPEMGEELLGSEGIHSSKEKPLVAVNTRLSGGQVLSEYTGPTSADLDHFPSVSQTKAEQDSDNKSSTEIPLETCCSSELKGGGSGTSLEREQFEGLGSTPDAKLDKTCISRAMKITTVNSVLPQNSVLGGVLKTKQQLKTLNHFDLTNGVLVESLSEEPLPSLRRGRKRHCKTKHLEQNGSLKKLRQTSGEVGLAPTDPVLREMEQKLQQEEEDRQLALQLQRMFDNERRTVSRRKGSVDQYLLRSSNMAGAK
UniProt Q6NTF9: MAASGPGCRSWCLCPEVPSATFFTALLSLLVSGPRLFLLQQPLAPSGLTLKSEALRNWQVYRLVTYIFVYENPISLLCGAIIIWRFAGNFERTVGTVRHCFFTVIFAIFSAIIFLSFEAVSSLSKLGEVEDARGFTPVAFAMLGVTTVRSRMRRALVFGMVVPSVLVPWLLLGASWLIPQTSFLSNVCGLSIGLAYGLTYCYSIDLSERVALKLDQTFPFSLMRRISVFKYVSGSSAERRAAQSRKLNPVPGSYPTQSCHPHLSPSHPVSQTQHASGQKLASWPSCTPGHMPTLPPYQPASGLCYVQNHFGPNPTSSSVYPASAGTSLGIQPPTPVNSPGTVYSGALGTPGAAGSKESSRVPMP
UniProt P34096: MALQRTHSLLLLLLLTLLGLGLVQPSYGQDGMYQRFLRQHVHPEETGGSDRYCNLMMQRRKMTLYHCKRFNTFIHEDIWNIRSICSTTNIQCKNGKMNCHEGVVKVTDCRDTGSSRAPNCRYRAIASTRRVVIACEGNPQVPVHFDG
UniProt Q96K19: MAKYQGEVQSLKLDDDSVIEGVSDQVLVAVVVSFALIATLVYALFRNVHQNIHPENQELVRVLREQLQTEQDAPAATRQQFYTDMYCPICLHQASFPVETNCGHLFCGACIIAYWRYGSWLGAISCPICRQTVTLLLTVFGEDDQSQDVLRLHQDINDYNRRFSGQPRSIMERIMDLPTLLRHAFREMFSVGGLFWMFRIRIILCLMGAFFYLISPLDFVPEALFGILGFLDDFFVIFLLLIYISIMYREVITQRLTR
UniProt Q86XS8: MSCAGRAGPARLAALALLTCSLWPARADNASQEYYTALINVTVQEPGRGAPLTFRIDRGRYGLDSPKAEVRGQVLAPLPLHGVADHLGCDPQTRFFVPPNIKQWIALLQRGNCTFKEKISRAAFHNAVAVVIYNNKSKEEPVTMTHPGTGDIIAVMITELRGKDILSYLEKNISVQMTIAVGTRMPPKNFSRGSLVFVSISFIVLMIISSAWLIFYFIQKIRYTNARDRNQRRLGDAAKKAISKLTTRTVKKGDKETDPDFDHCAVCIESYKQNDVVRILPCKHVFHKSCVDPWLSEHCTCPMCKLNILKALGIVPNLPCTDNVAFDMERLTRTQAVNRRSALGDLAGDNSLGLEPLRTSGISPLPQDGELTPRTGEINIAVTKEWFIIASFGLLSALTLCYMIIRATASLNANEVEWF
UniProt Q15493: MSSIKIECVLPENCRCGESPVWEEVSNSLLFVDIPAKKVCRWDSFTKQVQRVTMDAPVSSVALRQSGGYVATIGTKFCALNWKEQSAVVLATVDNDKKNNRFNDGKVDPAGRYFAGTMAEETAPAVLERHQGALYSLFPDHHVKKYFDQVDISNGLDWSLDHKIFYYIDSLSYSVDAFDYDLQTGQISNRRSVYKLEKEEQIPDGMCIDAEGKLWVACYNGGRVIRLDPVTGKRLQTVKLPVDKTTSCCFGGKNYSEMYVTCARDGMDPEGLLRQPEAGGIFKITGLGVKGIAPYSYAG
UniProt Q5VTB9: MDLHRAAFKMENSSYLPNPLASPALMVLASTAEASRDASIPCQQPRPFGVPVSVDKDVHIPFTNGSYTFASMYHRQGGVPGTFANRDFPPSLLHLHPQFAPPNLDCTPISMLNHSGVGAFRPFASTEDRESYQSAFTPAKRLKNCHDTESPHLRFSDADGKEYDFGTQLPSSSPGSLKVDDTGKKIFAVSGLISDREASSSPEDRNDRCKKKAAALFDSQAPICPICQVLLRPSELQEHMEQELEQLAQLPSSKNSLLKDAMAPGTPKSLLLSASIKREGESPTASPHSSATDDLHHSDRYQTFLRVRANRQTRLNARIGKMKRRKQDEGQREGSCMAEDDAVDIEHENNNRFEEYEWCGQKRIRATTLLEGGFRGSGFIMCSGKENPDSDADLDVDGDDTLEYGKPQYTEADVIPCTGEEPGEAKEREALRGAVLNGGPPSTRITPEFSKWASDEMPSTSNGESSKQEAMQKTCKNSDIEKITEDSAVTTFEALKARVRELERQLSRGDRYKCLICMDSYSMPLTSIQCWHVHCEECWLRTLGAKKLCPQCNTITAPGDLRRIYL
UniProt P0C7M4: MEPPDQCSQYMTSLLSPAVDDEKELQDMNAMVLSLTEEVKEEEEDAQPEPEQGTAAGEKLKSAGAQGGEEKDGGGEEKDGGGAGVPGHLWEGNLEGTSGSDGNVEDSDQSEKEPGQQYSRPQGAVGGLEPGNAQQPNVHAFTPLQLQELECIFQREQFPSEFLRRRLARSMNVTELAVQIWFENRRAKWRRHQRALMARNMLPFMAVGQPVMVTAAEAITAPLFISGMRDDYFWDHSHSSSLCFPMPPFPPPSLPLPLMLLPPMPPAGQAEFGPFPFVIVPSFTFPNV
UniProt Q9H4X1: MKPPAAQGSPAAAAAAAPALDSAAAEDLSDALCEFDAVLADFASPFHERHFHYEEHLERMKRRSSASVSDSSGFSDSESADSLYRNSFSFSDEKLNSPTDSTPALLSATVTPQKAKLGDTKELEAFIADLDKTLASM
UniProt P48382: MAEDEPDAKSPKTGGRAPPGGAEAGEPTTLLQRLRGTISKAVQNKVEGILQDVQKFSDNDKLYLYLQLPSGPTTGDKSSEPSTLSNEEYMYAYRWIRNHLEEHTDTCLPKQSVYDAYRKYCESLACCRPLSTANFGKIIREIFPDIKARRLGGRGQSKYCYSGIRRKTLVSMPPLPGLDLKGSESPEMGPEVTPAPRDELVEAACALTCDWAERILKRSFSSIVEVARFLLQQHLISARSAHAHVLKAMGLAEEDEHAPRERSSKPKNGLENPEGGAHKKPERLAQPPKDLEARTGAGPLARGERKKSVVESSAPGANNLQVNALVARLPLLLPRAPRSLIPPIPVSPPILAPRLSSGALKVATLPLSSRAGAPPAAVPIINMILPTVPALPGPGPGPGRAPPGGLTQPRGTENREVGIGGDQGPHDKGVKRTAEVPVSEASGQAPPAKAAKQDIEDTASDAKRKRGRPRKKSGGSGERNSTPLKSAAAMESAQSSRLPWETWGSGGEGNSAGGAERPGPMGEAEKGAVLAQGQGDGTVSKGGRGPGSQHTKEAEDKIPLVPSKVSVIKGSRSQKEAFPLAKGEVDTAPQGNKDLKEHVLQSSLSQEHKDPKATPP

Each target was assayed with CO[C@H]1C[C@@H]2CC[C@@H](C)[C@@](O)(O2)C(=O)C(=O)N2CCCC[C@H]2C(=O)O[C@H]([C@H](C)C[C@@H]2CC[C@H](n3cnnn3)[C@H](OC)C2)CC(=O)[C@H](C)/C=C(\C)[C@@H](O)[C@@H](OC)C(=O)[C@H](C)C[C@H](C)/C=C/C=C/C=C/1C [zotarolimus] (assay: log2 fold change, soluble protein after heating vs DMSO (PISA); higher = thermal stabilisation; K562 cells, 10 uM, 30 min; active = over 0.2 and 3.5 SD of the protein, either way, in both replicates (recomputed)).
Method in brief: (§1)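 Thermal stability values are relative to control samples and come from duplicates. They are expressed as log2 fold changes. For measurement, K562 cells (2×10^6 cells/mL) received 10 μM compound for 30 min, and aliquots were heated for 3 min over 48°C-58°C, pooled, and extracted at 4°C in PBS with 0.5% NP-40. Soluble protein, the supernatant after 21,000xg for 90 min, was quantified by TMTpro 16plex LC-MS/MS with equalised channel sums.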

log2 fold change, inactive:
REX1BD (UniProt Q96EN9) -0.194
RHD (UniProt Q02161) -0.071
RFWD3 (UniProt Q6PCD5) -0.006
RBMY1E (UniProt A6NEQ0) 0.083
RING1 (UniProt Q06587) 0.067
RBM48 isoform 2 (UniProt Q5RL73) -0.076
RNF169 (UniProt Q8NCN4) 0.044
RECQL5 (UniProt O94762) 0.027
RHBDD2 isoform 2 (UniProt Q6NTF9) -0.083
RNASE4 (UniProt P34096) 0.033
RNF170 (UniProt Q96K19) 0.084
RGS14 (UniProt O43566) -0.064
RNF185 (UniProt Q96GF1) 0.117
RGP1 (UniProt Q92546) 0.011
RNF130 (UniProt Q86XS8) 0.026

These targets were tested with COc1cc(C(=O)O)ccc1NC(=O)[C@@H]1N[C@@H](CC(C)(C)C)[C@](C#N)(c2ccc(Cl)cc2F)[C@H]1c1cccc(Cl)c1F [idasanutlin] in the same assay as above.
Method in brief: as §1

log2 fold change, inactive:
RHD (UniProt Q02161) -0.143
RFWD3 (UniProt Q6PCD5) -0.081
RGN (UniProt Q15493) 0.064
RNF220 isoform 3 (UniProt Q5VTB9) 0.073
RING1 (UniProt Q06587) 0.189
RBM48 isoform 2 (UniProt Q5RL73) 0.04
RHOXF2B (UniProt P0C7M4) -0.195
RHBDD2 isoform 2 (UniProt Q6NTF9) -0.064
RNASE4 (UniProt P34096) -0.03
RNF170 (UniProt Q96K19) 0.019
RGS14 (UniProt O43566) 0.114
RNF185 (UniProt Q96GF1) -0.143
RGP1 (UniProt Q92546) 0.069
RCL1 (UniProt Q5VZU2) -0.096
RNASE7 (UniProt Q9H1E1) 0.575
RGCC (UniProt Q9H4X1) 0.294
RFX5 (UniProt P48382) 0.042
